In article PMC12752501:
No constants are given. Whether binding was seen depends on the method and setting. In cells and extracts the contact can be indirect. A yes stands for co-enrichment or nearness to the bait. Other partners may have been found. Where a sequence is shown, tags or fusion partners need not be part of it.

The chains behind the UniProt entries cited, without tags or fusion partners. Residues count along the entry.
UniProt Q03265, residues 44-553: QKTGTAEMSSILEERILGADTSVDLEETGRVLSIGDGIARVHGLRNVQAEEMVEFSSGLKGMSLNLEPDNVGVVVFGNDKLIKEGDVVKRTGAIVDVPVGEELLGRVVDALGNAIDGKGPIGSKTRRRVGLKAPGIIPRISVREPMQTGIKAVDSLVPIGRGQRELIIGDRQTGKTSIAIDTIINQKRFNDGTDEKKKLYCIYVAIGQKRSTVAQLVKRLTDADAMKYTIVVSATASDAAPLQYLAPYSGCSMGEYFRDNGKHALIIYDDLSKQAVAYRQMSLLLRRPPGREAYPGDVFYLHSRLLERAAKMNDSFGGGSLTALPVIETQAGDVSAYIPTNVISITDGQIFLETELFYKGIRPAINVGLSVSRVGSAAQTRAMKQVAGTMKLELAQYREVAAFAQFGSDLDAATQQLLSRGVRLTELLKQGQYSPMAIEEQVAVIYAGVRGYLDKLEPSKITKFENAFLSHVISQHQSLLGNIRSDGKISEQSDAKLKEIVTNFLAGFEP
UniProt P56480, residues 47-529: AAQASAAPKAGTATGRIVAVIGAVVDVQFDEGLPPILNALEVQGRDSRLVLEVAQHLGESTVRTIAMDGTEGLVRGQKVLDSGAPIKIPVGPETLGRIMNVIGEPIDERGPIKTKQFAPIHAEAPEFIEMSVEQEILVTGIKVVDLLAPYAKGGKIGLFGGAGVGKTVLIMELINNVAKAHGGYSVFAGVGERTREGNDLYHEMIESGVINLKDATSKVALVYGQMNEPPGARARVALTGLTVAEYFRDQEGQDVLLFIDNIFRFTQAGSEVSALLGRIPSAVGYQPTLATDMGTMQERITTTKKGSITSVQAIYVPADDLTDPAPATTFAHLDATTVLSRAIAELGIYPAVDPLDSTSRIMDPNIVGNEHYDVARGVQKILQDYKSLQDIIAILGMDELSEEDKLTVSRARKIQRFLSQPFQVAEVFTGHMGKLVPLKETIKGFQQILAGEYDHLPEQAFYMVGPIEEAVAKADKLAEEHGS
UniProt Q9WU60, residues 83-1428: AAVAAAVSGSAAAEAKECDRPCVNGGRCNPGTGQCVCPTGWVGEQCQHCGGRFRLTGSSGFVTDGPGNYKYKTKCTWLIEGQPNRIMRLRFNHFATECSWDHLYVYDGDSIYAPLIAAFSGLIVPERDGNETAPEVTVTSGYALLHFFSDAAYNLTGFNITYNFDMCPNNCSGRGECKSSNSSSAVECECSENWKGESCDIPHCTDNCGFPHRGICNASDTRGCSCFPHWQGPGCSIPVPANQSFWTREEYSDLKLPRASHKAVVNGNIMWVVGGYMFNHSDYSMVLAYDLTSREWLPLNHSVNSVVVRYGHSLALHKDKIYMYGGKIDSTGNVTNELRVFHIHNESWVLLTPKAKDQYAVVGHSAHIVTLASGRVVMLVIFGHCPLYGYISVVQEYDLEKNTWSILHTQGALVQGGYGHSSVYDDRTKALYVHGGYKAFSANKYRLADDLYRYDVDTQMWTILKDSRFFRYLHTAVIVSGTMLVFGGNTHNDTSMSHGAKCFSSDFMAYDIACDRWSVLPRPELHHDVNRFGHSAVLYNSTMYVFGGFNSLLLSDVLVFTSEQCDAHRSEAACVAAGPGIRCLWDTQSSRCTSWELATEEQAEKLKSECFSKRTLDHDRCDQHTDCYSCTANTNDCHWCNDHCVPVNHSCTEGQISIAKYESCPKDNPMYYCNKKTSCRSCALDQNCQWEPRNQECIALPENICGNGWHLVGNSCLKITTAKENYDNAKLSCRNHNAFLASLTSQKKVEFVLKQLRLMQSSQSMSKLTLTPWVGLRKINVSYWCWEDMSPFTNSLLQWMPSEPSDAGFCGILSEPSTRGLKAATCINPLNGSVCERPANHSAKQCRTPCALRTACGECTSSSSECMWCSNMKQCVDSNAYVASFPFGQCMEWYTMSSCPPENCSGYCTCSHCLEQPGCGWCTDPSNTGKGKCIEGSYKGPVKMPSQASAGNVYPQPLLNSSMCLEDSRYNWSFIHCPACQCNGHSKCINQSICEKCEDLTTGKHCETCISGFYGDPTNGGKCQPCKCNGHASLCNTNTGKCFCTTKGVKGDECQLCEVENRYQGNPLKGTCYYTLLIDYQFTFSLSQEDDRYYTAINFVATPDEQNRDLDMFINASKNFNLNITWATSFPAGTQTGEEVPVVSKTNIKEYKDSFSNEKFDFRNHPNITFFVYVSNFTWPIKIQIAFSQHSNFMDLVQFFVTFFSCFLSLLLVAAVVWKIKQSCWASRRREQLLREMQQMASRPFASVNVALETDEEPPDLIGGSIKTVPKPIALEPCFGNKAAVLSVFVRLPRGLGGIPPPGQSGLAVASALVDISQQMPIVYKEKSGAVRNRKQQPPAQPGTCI
UniProt Q922F4: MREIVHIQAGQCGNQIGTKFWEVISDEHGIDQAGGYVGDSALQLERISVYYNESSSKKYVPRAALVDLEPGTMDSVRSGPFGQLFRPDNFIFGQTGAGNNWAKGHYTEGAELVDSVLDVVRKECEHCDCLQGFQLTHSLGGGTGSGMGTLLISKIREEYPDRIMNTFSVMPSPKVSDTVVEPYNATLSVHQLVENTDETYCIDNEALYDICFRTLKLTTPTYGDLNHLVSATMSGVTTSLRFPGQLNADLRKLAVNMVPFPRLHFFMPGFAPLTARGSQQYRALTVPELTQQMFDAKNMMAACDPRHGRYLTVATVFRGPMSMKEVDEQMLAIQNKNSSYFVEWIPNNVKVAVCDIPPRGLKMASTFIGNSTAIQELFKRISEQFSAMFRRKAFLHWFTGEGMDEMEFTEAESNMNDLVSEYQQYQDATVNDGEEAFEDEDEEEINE
UniProt Q6A051, residues 52-1378: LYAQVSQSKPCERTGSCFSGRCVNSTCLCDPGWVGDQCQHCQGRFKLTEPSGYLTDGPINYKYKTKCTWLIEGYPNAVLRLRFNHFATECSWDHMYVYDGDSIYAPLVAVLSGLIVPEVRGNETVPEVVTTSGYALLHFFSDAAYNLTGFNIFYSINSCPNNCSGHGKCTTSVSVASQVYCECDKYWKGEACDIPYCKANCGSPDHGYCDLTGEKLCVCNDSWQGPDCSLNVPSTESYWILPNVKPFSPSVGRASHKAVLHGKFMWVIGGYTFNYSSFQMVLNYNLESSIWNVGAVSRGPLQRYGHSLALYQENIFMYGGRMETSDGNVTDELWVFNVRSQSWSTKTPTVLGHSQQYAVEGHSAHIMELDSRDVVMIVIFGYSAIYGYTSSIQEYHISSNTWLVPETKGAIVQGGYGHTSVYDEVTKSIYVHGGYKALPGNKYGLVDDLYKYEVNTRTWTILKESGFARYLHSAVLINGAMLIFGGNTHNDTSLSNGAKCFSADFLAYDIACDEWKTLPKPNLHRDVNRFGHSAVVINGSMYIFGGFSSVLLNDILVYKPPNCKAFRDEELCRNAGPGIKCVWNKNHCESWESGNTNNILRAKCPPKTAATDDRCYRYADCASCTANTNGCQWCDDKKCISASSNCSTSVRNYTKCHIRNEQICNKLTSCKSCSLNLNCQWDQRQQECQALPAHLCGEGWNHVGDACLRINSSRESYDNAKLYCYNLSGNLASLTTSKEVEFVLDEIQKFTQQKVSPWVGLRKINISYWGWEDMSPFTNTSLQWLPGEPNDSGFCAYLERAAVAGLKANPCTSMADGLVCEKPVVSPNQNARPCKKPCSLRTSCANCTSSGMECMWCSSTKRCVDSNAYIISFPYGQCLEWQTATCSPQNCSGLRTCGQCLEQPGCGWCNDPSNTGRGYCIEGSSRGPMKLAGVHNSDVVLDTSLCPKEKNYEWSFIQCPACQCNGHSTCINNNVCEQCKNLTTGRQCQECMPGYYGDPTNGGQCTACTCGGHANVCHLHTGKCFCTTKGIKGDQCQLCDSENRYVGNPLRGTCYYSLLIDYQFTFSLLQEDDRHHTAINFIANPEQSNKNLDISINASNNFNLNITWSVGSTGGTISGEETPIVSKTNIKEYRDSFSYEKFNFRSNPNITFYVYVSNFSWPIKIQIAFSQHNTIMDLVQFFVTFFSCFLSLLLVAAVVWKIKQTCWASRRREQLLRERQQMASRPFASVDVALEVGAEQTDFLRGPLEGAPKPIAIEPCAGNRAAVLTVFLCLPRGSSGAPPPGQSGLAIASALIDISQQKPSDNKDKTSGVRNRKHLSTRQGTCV

T1: MGRN1 fused to a 1D4 tag (MGRN1–1D4) (mouse) (UniProt Q9D074)
T1 sequence: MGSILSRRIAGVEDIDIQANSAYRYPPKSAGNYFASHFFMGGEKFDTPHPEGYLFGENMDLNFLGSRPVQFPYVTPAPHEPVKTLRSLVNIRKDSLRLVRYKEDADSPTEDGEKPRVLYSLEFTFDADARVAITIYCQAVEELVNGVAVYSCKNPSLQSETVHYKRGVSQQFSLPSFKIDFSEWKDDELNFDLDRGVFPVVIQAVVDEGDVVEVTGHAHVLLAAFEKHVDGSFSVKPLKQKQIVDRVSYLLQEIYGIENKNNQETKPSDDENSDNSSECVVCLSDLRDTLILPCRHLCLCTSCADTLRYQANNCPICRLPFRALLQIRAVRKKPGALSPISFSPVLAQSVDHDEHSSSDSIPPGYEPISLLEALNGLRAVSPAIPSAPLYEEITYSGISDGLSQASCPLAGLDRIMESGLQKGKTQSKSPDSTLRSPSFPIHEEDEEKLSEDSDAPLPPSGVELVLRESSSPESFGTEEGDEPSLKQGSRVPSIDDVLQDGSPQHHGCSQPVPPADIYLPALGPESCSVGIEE


Molecular target: T1, MGRN1 fused to a 1D4 tag (MGRN1–1D4) (mouse)
Assay: affinity purification with mass spectrometry; MGRN1–1D4 stably expressed in Mgrn1−/−; Rnf157−/− NIH/3T3 cells, captured by 1D4 antibody on Protein A Dynabeads; gel bands analysed by LC-MS; compared to wild-type controls; lysis in 50 mM Tris-HCl pH 8.0, 150 mM NaCl, 1% NP-40, 1 mM DTT

binding	Molecule
binds	ATPA (from UniProt Q03265 44-553)
binds	ATPB (from UniProt P56480 47-529)
binds	endogenous ATRN (attractin) (from UniProt Q9WU60 83-1428)

Continued, molecule first:

Molecule	binding
TUBB6 (from UniProt Q922F4 1-447)	binds
endogenous ATRNL1 (attractin-like 1) (from UniProt Q6A051 52-1378)	binds
ADT2 (protein, UniProt P51881 1-298) MTDAAVSFAKDFLAGGVAAAISKTAVAPIERVKLLLQVQHASKQITADKQYKGIIDCVVRIPKEQGVLSFWRGNLANVIRYFPTQALNFAFKDKYKQIFLGGVDKRTQFWRYFAGNLASGGAAGATSLCFVYPLDFARTRLAADVGKAGAEREFKGLGDCLVKIYKSDGIKGLYQGFNVSVQGIIIYRAAYFGIYDTAKGMLPDPKNTHIFISWMIAQSVTAVAGLTSYPFDTVRRRMMMQSGRKGTDIMYTGTLDCWRKIARDEGSKAFFKGAWSNVLRGMGGAFVLVLYDEIKKYT	binds
